These are yes or no findings as the source states them, for the method shown. Binding seen in cells or lysates may run through a third protein. A yes stands for co-enrichment or nearness to the bait. Other partners may have been found. For some of these results: Tags and fused reporters may be left off the sequences shown.
Assays:
[1] = molecular target: FLAG-Oct4 (F-Oct4) (mouse) (UniProt P20263); assay: affinity purification with mass spectrometry; FLAG-affinity purification of F-Oct4 from 1.5 ml ESC nuclear extract on anti-FLAG M2 agarose, buffer C-100 (20 mM HEPES pH 7.6, 100 mM KCl), washes with 0.02% NP-40, Benzonase, 4°C, FLAG peptide elution; three purifications; control ZHBTc4 extract
[2] = molecular target: T1, FLAG-tagged Dax1 (F-Dax1) (mouse) (UniProt Q61066); assay: affinity purification with mass spectrometry; FLAG-affinity purification of F-Sall4, F-Dax1, F-Tcfcp2l1 or F-Esrrb from nuclear extract of ZHBTc4-derived ESC clones, buffer C-100, Benzonase, FLAG peptide elution; two purifications each without and with doxycycline (16 hr, Oct4 removed); hits present in both -Dox purifications
T1 sequence: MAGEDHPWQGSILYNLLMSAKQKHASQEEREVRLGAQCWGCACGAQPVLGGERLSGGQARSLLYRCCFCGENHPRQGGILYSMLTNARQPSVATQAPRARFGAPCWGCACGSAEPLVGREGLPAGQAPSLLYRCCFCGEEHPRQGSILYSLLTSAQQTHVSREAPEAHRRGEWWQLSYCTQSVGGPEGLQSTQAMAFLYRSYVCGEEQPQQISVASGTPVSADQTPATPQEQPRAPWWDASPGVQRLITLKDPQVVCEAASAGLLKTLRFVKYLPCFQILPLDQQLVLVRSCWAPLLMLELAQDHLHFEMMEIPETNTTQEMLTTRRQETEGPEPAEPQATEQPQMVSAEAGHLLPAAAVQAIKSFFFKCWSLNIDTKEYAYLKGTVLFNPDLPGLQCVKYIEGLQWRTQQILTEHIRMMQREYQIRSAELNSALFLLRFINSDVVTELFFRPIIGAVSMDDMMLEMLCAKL

Amino acid sequences for entries named in this document (tags omitted).
UniProt P20263: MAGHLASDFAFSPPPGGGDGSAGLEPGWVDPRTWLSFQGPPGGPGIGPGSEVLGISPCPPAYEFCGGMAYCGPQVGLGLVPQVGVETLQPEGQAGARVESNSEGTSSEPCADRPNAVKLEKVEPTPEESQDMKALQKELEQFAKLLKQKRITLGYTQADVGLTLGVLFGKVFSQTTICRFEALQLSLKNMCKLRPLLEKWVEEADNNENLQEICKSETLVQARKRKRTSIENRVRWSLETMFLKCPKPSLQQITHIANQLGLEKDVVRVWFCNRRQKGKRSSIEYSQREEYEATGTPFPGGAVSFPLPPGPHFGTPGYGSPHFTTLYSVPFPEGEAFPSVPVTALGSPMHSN

[3] = molecular target: T2, FLAG-tagged Esrrb (F-Esrrb) (mouse) (UniProt Q61539); assay: as above
T2 sequence: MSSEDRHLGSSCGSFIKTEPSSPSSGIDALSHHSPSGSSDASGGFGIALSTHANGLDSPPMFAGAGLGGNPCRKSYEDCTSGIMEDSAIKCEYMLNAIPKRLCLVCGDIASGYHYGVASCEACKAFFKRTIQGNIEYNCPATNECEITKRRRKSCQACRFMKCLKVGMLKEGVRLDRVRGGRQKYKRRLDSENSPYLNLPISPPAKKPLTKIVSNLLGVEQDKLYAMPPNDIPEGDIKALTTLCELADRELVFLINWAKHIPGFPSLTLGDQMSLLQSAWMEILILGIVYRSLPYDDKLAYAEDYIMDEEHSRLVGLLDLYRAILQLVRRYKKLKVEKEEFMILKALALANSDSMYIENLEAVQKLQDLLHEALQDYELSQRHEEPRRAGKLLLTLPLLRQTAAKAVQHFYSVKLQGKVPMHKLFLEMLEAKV

[4] = molecular target: T3, FLAG-tagged Tcfcp2l1 (F-Tcfcp2l1) (mouse) (UniProt Q3UNW5); assay: as above
T3 sequence: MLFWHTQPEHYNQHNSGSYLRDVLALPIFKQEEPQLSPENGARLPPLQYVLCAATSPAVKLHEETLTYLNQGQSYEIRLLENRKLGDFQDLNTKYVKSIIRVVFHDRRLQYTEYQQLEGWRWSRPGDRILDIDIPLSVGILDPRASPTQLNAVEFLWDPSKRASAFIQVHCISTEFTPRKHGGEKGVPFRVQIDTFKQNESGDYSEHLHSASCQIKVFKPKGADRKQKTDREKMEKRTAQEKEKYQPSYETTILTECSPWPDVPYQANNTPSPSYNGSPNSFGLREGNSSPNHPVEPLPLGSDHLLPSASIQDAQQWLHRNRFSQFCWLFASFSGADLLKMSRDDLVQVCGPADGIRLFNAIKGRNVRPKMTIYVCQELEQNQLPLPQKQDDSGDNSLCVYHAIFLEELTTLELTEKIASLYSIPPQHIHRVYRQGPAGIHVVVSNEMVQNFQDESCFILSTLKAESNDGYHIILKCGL

Measured: binding

B1: Ogt (enzyme, UniProt Q8CGY8 1-1046)
chain: MASSVGNVADSTEPTKRMLSFQGLAELAHREYQAGDFEAAERHCMQLWRQEPDNTGVLLLLSSIHFQCRRLDRSAHFSTLAIKQNPLLAEAYSNLGNVYKERGQLQEAIEHYRHALRLKPDFIDGYINLAAALVAAGDMEGAVQAYVSALQYNPDLYCVRSDLGNLLKALGRLEEAKACYLKAIETQPNFAVAWSNLGCVFNAQGEIWLAIHHFEKAVTLDPNFLDAYINLGNVLKEARIFDRAVAAYLRALSLSPNHAVVHGNLACVYYEQGLIDLAIDTYRRAIELQPHFPDAYCNLANALKEKGSVAEAEDCYNTALRLCPTHADSLNNLANIKREQGNIEEAVRLYRKALEVFPEFAAAHSNLASVLQQQGKLQEALMHYKEAIRISPTFADAYSNMGNTLKEMQDVQGALQCYTRAIQINPAFADAHSNLASIHKDSGNIPEAIASYRTALKLKPDFPDAYCNLAHCLQIVCDWTDYDERMKKLVSIVAEQLEKNRLPSVHPHHSMLYPLSHGFRKAIAERHGNLCLDKINVLHKPPYEHPKDLKLSDGRLRVGYVSSDFGNHPTSHLMQSIPGMHNPDKFEVFCYALSPDDGTNFRVKVMAEANHFIDLSQIPCNGKAADRIHQDGIHILVNMNGYTKGARNELFALRPAPIQAMWLGYPGTSGALFMDYIITDQETSPAEVAEQYSEKLAYMPHTFFIGDHANMFPHLKKKAVIDFKSNGHIYDNRIVLNGIDLKAFLDSLPDVKIVKMKCPDGGDNPDSSNTALNMPVIPMNTIAEAVIEMINRGQIQITINGFSISNGLATTQINNKAATGEEVPRTIIVTTRSQYGLPEDAIVYCNFNQLYKIDPSTLQMWANILKRVPNSVLWLLRFPAVGEPNIQQYAQNMGLPQNRIIFSPVAPKEEHVRRGQLADVCLDTPLCNGHTTGMDVLWAGTPMVTMPGETLASRVAASQLTCLGCLELIAKSRQEYEDIAVKLGTDLEYLKKIRGKVWKQRISSPLFNTKQYTMELERLYLQMWEHYAAGNKPDHMIKPVEVTESA
binds: all assays above
